These are yes or no findings as the source states them, for the method shown. Binding seen in cells or lysates may run through a third protein. Some binding calls cover weakened binding; strength is not graded here. For part of these data: Tags and fused reporters may be left off the sequences shown.
Assays:
Experiment in all cases: co-IP
[1] = molecular target: T1, MPP2 with C-terminal HA tag (wildtype MPP2) (UniProt Q14168)
T1 sequence: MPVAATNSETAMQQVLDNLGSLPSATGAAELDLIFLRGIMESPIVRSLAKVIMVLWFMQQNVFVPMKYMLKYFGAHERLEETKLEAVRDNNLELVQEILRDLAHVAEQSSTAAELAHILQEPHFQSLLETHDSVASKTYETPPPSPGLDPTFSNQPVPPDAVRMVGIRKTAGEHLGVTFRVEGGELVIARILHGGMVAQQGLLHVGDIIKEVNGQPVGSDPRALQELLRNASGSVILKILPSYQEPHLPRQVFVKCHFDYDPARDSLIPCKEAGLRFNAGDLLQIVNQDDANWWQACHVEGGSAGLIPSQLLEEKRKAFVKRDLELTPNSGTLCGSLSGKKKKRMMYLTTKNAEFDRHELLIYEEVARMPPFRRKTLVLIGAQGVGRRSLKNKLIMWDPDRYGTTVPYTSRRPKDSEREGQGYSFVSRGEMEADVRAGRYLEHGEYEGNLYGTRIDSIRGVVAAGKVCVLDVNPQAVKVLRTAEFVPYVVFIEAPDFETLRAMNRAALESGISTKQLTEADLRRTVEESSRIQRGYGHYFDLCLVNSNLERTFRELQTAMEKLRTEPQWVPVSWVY

By UniProt entry, the sequences of proteins in these tests, tags left out. Where a name states a change or a piece, a line headed by the entry shows the natural chain unless it says otherwise.
UniProt Q8IUF8, whole entry: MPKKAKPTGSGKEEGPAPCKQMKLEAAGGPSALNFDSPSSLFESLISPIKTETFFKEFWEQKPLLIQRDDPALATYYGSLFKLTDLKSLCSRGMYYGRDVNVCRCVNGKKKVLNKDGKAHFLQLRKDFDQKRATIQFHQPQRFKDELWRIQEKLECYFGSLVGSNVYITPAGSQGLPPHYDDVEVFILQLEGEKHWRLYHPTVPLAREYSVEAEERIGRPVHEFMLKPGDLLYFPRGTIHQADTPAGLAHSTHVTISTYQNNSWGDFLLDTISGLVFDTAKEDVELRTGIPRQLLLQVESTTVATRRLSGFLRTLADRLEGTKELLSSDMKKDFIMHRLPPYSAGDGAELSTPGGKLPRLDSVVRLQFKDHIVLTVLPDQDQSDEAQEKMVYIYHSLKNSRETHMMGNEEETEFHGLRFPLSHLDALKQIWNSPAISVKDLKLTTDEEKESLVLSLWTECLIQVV
UniProt P06748, whole entry: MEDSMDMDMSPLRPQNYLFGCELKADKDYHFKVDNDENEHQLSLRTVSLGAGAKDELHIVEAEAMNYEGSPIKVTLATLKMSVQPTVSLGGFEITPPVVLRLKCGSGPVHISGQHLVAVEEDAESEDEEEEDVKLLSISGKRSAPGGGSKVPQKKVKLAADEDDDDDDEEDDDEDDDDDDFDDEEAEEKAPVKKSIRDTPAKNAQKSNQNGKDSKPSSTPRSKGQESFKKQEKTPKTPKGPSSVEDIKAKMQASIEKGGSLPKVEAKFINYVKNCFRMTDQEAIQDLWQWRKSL

[2] = molecular target: T2, MPP6-HA (human) (UniProt Q9NZW5)
T2 sequence: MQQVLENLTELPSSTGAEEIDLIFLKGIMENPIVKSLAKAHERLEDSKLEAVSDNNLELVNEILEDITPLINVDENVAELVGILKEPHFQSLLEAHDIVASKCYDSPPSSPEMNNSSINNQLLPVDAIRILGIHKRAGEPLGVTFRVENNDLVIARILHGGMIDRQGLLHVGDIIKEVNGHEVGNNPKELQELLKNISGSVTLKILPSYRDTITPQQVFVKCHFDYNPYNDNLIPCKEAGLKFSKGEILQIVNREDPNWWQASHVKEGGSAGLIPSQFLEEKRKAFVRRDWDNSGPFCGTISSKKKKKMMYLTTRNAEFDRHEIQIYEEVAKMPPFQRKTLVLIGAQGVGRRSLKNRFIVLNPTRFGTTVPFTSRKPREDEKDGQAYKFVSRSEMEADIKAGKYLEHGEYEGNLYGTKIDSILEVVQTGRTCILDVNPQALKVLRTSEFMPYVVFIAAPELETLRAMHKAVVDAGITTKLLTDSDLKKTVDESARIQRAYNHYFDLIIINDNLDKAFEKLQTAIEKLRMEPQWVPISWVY

[3] = molecular target: HA-MINA R125G/K126G (NoLS mutant) (UniProt Q8IUF8)
[4] = molecular target: HA-MINA (wildtype) (UniProt Q8IUF8)
[5] = molecular target: 3xFLAG-MINA R125G/K126G (NoLS mutant) (UniProt Q8IUF8)
[6] = molecular target: 3xFLAG-MINA H179A (inactivating Fe(II)-binding mutation) (UniProt Q8IUF8)

In the case of “FLAG-MINA (from UniProt Q8IUF8 1-465) (enzyme)”, the binding [1] is reported as “no binding” and the binding [2] is reported as “binds”.

In the case of “endogenous Nucleophosmin (NPM1) (from UniProt P06748 1-294)”, the binding [3] is reported as “no binding”.

B1: endogenous MPP6 (membrane palmitoylated protein 6) (protein, UniProt Q9NZW5 1-540)
chain: MQQVLENLTELPSSTGAEEIDLIFLKGIMENPIVKSLAKAHERLEDSKLEAVSDNNLELVNEILEDITPLINVDENVAELVGILKEPHFQSLLEAHDIVASKCYDSPPSSPEMNNSSINNQLLPVDAIRILGIHKRAGEPLGVTFRVENNDLVIARILHGGMIDRQGLLHVGDIIKEVNGHEVGNNPKELQELLKNISGSVTLKILPSYRDTITPQQVFVKCHFDYNPYNDNLIPCKEAGLKFSKGEILQIVNREDPNWWQASHVKEGGSAGLIPSQFLEEKRKAFVRRDWDNSGPFCGTISSKKKKKMMYLTTRNAEFDRHEIQIYEEVAKMPPFQRKTLVLIGAQGVGRRSLKNRFIVLNPTRFGTTVPFTSRKPREDEKDGQAYKFVSRSEMEADIKAGKYLEHGEYEGNLYGTKIDSILEVVQTGRTCILDVNPQALKVLRTSEFMPYVVFIAAPELETLRAMHKAVVDAGITTKLLTDSDLKKTVDESARIQRAYNHYFDLIIINDNLDKAFEKLQTAIEKLRMEPQWVPISWVY
With B1 the binding [4] was “binds”, the binding [5] was “binds” and the binding [6] was “no binding”.
